Assay results reported in US20230140522A1, “COMPOSITION FOR AMELIORATING OR PREVENTING DECREASES IN BONE STRENGTH” (priority 2020, published 2023).

Tests used:
MTP = settings: liver, OVX mice, ornithine 1% blended feed, vs OVX (ornithine non-administration) group
[1] = test system: osteoporosis mouse model (OVX); settings: OVX mice, ornithine 1% blended feed, vs OVX (ornithine non-administration) group
PPARγ = settings: liver, OVX mice, ornithine 1% blended feed, vs OVX (ornithine non-administration) group
SREBP1c = settings: liver, OVX mice, ornithine 1% blended feed, vs OVX (ornithine non-administration) group

Cl.NCCC[C@H](N)C(=O)O [ornithine, L-Ornithine Monohydrochloride]
decreased: expression level of MTP (MTP) | liver weight (per body weight) [1] | expression level of PPARγ (PPARγ) | expression level of SREBP1c (SREBP1c)
